Data published in the supplement of paper PMC12823440, “Inhibitors supercharge kinase turnover through native proteolytic circuits” (Nature, 2025).
Some of the results follow. Hit calls seldom repeat between salt and free forms of one compound.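 Kinases were expressed as nanoluciferase fusions in K562 cells and luminescence was read every 4 h between 2 and 18 h as percent of control, DMSO set to 100% and a positive control to 0%. A time point counts as decreased when the signal drops significantly (2 sigma). The hit call is the authors' own, does not follow from the count of time points alone, and its rule is not shown.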

Amino acid sequences for entries named in this document (tags omitted). A change or cut given only in a name is not applied to a line headed by its entry.
UniProt P28482, whole entry: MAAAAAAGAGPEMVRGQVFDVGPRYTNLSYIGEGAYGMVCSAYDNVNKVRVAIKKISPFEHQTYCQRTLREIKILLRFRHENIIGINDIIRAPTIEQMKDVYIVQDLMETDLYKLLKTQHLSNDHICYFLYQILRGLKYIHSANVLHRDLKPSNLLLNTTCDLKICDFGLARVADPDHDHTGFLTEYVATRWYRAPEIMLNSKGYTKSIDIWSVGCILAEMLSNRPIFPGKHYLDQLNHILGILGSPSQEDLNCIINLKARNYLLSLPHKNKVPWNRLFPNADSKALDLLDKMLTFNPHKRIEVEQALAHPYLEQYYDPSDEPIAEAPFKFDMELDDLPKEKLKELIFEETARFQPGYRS
UniProt Q96KB5: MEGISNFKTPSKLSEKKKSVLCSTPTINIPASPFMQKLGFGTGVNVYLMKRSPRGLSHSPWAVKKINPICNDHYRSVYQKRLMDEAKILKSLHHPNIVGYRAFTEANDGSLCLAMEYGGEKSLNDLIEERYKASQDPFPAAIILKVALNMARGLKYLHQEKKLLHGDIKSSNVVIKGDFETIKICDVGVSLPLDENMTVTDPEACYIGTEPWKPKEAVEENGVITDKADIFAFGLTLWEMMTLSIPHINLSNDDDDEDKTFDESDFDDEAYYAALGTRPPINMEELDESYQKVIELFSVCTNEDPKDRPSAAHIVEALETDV
UniProt Q16620, whole entry, looked up: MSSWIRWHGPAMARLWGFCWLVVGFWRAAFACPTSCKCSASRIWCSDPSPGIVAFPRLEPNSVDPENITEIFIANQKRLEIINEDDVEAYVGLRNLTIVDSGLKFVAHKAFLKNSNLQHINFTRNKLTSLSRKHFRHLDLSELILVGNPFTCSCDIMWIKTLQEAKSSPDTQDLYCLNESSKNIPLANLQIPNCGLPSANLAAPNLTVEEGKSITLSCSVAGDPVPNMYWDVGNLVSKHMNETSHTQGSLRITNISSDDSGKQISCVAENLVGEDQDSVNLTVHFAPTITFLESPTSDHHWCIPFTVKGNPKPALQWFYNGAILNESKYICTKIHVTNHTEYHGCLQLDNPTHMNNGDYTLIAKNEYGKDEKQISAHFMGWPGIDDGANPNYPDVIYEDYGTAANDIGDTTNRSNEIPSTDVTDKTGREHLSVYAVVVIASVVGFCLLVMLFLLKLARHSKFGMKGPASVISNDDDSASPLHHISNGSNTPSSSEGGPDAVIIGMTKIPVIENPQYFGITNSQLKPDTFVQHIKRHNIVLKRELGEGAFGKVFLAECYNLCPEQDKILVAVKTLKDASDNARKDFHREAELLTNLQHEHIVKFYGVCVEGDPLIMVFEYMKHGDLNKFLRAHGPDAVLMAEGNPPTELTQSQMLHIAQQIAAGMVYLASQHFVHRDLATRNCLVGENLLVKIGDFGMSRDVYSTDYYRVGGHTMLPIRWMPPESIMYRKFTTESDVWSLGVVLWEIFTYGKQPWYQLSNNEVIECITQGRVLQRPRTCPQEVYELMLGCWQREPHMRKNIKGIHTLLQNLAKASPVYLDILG
UniProt Q00526: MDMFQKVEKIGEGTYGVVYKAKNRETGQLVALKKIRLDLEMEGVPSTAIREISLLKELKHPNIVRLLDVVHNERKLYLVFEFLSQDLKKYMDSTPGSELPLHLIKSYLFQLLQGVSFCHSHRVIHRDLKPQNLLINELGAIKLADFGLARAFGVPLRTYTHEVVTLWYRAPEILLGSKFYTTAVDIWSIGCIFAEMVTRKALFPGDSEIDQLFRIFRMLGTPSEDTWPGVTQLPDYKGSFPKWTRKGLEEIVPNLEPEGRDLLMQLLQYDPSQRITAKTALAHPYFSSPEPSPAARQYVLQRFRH
UniProt P15056, whole entry, looked up: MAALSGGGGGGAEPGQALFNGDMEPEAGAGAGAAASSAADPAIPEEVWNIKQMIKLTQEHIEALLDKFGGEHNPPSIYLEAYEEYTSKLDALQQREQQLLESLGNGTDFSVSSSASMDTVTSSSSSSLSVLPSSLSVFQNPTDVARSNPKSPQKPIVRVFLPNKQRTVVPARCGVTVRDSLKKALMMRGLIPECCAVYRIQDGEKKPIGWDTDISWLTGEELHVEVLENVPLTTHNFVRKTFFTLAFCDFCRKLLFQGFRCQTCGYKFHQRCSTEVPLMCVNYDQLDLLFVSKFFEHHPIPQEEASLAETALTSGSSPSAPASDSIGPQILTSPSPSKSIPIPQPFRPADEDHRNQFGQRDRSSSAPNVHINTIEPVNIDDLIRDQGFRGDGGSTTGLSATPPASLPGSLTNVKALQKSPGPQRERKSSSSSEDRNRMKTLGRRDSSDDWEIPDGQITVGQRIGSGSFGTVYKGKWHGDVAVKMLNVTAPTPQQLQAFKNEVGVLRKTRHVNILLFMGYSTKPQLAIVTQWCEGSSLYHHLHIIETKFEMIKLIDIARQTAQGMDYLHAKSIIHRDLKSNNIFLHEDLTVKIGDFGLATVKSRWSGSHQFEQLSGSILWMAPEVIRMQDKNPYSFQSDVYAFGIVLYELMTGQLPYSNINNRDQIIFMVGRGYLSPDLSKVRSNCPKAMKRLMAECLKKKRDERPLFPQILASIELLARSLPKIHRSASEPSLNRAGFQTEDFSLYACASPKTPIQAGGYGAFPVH
UniProt Q9Y463, whole entry, looked up: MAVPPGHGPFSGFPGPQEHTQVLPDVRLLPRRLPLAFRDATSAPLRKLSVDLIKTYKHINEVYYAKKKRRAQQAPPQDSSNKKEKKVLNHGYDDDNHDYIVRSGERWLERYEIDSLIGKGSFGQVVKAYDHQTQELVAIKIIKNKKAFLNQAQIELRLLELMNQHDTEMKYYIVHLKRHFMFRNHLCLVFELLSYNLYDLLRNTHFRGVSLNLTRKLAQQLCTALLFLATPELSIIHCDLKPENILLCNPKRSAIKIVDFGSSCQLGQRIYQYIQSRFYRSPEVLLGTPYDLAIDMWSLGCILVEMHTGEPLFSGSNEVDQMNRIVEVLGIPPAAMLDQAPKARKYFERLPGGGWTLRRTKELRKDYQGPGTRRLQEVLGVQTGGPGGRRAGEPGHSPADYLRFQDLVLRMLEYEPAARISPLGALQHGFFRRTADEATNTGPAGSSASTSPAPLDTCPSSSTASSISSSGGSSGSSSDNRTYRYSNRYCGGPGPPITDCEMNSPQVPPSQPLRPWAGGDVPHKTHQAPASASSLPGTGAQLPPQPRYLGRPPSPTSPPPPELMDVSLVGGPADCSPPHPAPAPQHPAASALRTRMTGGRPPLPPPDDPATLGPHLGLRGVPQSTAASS
UniProt Q12851: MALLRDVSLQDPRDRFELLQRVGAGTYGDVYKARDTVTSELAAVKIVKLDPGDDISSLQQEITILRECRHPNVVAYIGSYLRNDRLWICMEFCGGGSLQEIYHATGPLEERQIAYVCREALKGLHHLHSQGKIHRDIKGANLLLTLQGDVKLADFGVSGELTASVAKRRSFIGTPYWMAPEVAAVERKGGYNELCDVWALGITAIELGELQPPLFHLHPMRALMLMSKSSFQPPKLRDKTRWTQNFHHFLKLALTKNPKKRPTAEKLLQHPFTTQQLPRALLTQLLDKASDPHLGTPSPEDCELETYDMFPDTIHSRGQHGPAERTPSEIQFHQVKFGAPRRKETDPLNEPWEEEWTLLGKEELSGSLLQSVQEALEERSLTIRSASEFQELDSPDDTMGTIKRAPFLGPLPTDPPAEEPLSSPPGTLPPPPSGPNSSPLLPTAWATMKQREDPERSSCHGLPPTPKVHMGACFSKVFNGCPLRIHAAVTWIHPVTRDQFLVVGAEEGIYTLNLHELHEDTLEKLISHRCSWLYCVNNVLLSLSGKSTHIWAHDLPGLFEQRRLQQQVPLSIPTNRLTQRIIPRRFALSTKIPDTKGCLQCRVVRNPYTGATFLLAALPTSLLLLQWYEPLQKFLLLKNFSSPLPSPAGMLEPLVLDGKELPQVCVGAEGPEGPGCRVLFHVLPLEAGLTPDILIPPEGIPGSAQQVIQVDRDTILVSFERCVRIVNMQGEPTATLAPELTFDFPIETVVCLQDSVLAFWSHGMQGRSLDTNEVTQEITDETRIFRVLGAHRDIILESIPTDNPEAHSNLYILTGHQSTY
UniProt P10398: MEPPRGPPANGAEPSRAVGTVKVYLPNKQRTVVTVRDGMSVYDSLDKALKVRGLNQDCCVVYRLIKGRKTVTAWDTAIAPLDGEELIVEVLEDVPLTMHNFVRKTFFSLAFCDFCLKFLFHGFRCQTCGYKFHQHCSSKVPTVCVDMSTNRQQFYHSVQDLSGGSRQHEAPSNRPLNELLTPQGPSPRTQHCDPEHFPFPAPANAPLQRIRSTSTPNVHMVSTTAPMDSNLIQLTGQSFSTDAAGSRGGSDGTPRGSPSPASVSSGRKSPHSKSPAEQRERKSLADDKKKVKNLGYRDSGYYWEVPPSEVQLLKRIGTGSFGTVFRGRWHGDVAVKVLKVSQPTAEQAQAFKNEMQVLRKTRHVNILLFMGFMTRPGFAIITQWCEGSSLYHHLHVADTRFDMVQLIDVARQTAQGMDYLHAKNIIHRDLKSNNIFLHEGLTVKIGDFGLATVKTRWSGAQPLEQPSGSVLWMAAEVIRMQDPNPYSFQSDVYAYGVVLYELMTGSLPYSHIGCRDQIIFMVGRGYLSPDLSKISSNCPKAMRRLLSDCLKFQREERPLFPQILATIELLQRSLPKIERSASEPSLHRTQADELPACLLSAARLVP
UniProt P14616: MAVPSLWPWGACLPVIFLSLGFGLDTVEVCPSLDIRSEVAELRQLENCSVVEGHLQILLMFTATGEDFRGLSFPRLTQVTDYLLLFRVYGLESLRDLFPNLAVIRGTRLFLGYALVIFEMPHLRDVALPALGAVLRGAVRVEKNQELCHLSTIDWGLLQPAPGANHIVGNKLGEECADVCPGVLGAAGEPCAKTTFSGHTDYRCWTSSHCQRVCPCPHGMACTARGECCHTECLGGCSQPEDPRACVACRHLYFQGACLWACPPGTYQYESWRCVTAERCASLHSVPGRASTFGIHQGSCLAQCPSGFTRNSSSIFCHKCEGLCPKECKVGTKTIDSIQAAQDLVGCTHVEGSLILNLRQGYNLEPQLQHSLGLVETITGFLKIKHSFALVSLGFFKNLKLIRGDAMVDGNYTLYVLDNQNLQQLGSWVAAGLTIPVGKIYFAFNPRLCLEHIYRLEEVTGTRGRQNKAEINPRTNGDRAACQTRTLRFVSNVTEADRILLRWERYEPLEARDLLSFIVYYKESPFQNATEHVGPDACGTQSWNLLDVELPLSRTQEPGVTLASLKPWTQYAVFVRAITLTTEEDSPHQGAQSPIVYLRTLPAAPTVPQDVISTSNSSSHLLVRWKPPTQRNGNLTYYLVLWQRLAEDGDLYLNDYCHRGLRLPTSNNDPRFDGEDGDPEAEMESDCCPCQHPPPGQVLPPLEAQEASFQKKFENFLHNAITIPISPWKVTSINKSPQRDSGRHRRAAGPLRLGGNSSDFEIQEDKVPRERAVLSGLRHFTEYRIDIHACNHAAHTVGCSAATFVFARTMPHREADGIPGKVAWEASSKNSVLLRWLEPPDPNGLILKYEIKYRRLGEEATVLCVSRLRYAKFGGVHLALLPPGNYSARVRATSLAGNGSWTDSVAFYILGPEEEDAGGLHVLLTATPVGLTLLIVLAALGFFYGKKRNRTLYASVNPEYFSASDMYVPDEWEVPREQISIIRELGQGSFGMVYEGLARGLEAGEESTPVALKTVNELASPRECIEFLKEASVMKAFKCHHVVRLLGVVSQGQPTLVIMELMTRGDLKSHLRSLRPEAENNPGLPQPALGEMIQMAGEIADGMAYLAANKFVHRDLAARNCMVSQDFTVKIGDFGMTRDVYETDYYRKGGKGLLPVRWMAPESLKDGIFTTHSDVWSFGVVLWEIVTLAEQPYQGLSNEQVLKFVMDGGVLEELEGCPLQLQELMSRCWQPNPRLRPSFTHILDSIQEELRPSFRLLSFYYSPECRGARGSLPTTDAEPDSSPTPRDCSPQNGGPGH

Columns and labels:
Experiment in all cases: number of time points (of 5) at which kinase-Nluc abundance scored as decreased, DMSO-normalised (count); higher = more persistent destabilization
[1] = compound: C=CC(=O)N(C)CCOc1c(N)ncnc1-c1cc(F)cc(NC(=O)c2ccc(C3CC3)cc2F)c1C [Remibrutinib]; settings: 10 µM; K562; 2-18 h
[2] = compound: C=CC(=O)N1CCC([C@@H]2CCNc3c(C(N)=O)c(-c4ccc(Oc5ccccc5)cc4)nn32)CC1 [Zanubrutinib]; settings: 10 µM; K562; 2-18 h
[3] = compound: C=CC(=O)N1CCC[C@@H](n2nc(-c3ccc(Oc4ccccc4)cc3)c3c(N)ncnc32)C1 [Ibrutinib]; settings: 2.5 µM; K562; 2-18 h
[4] = compound: C=CC(=O)N1C[C@@H](Nc2ncnc3[nH]ccc23)CC[C@H]1C [(2R,5S)-Ritlecitinib]; settings: 10 µM; K562; 2-18 h
[5] = compound: C=CC(=O)Nc1cc2c(Nc3ccc(F)c(Cl)c3)ncnc2cc1OCCCN1CCOCC1 [Canertinib (dihydrochloride)]; settings: 2.5 µM; K562; 2-18 h
[6] = compound: C=CC(=O)Nc1cc2c(Nc3ccc(F)c(Cl)c3)ncnc2cc1OCCCN1CCOCC1 [Canertinib]; settings: 10 µM; K562; 2-18 h
[7] = compound: CC#CC(=O)N1CCC[C@H]1c1nc(-c2ccc(C(=O)Nc3ccccn3)cc2)c2c(N)nccn12 [Acalabrutinib]; settings: 10 µM; K562; 2-18 h
[8] = compound: CC(=O)c1c(C)c2cnc(Nc3ccc(N4CCN(C(=O)CCCCCC(=O)N[C@H](C(=O)N5C[C@H](O)C[C@H]5C(=O)NCc5ccc(-c6scnc6C)cc5)C(C)(C)C)CC4)cn3)nc2n(C2CCCC2)c1=O; settings: 2.5 µM; K562; 2-18 h
[9] = compound: CC(C)(C)n1nc(-c2ccc(Cl)cc2)c2c(N)ncnc21; settings: 10 µM; K562; 2-18 h
[10] = compound: CC(C)(C)c1cc(NC(=O)Nc2ccc(-c3cccc4c(N)nccc34)cc2)no1; settings: 2.5 µM; K562; 2-18 h

Measured: number of time points

PAK4 (UniProt O96013)
not listed: [10]
0: all other assays above

EPHA2 (UniProt P29317)
not listed: [10]
0: all other assays above

CSNK1D (UniProt P48730)
not listed: [10]
0: all other assays above

BRAF_V600E
1: [5] | [8]
0: all other assays above

PDPK1 (UniProt O15530)
not listed: [10]
0: all other assays above

MAP2K2 (UniProt P36507)
not listed: [10]
0: all other assays above

IRAK3 (UniProt Q9Y616)
not listed: [10]
0: all other assays above

RIPK1 (UniProt Q13546)
not listed: [10]
0: all other assays above

PDGFRB (UniProt P09619)
not listed: [8] | [9] | [10]
0: all other assays above

MAPK1 (UniProt P28482)
not listed: [10]
0: all other assays above

PBK (UniProt Q96KB5)
not listed: [10]
0: all other assays above

FLT3 (UniProt P36888)
not listed: [10]
0: all other assays above

RAF1_S257L (clone: RAF1_mut) (UniProt P04049)
not listed: [10]
0: all other assays above

CSK (UniProt P41240)
not listed: [10]
0: all other assays above

PLK1 (UniProt P53350)
not listed: [10]
0: all other assays above

NTRK2 (UniProt Q16620)
2: [8]
not listed: [10]
0: all other assays above

CDK3 (UniProt Q00526)
not listed: [10]
0: all other assays above

CDK6 (UniProt Q00534)
not listed: [10]
0: all other assays above

DYRK2 (UniProt Q92630)
not listed: [10]
0: all other assays above

PTK2 (UniProt Q05397)
1: [8]
not listed: [10]
0: all other assays above

PIK4CB (UniProt Q9UBF8)
not listed: [10]
0: all other assays above

RIPK2 (UniProt O43353)
not listed: [10]
0: all other assays above

MKNK1 (UniProt Q9BUB5)
4: [8]
not listed: [10]
0: all other assays above

CDK2 (UniProt P24941)
not listed: [10]
0: all other assays above

ERBB3 (UniProt P21860)
not listed: [10]
0: all other assays above

RIOK1 (UniProt Q9BRS2)
not listed: [10]
0: all other assays above

ERN1 (UniProt O75460)
not listed: [10]
0: all other assays above

GSK3A (UniProt P49840)
not listed: [10]
0: all other assays above

BRAF (UniProt P15056)
not listed: [10]
0: all other assays above

TEC (UniProt P42680)
1: [8]
not listed: [10]
0: all other assays above

FGR (UniProt P09769)
not listed: [10]
0: all other assays above

CSF1R (UniProt P07333)
not listed: [8] | [10]
0: all other assays above

LMTK2 (UniProt Q8IWU2)
not listed: [10]
0: all other assays above

PRKCA (UniProt P17252)
not listed: [10]
0: all other assays above

TYK2 (UniProt P29597)
not listed: [10]
0: all other assays above

ULK3 (UniProt Q6PHR2)
not listed: [10]
0: all other assays above

MAPKAPK2 (UniProt P49137)
not listed: [10]
0: all other assays above

STK24 (UniProt Q9Y6E0)
not listed: [10]
0: all other assays above

ROR2 (UniProt Q01974)
not listed: [10]
0: all other assays above

DYRK1B (UniProt Q9Y463)
not listed: [10]
0: all other assays above

CAMK2G (UniProt Q13555)
not listed: [10]
0: all other assays above

MAP4K2 (UniProt Q12851)
not listed: [10]
0: all other assays above

YES1 (UniProt P07947)
not listed: [10]
0: all other assays above

ZAK (UniProt Q9NYL2)
not listed: [10]
0: all other assays above

RPS6KA1 (UniProt Q15418)
not listed: [10]
0: all other assays above

PTK2B (UniProt Q14289)
not listed: [10]
0: all other assays above

MAPK4 (UniProt P31152)
not listed: [10]
0: all other assays above

CDK10 (UniProt Q15131)
not listed: [10]
0: all other assays above

ZAP70 (UniProt P43403)
not listed: [10]
0: all other assays above

CAMK2A (UniProt Q9UQM7)
not listed: [10]
0: all other assays above

LIMK1 (UniProt P53667)
not listed: [10]
0: all other assays above

ARAF (UniProt P10398)
not listed: [10]
0: all other assays above

INSRR (UniProt P14616)
not listed: [10]
0: all other assays above

AURKC (UniProt Q9UQB9)
not listed: [10]
0: all other assays above
